Test results as given in US11307205B2, “Non-radioactive cytotoxicity assays” (University of Southern California, priority 2016, dated 2022).
At least one compound was matched to its structure with a doubt left.

System: CAR CD8SP2-CD19MM-(vL-vH)-Myc-BBz-T2A-PAC T cell induced death of RAJI cells stably expressing GLuc
Test: Matador assay, drug modulation of CAR-T cell induced lysis of RAJI-GLuc cells
Assay type: cell-based, Human
Settings: E:T 5:1, 4 hours co-culture; Dasatinib 50 nM and 100 nM
Protocol: Human peripheral blood T cells isolated using CD3 magnetic beads were infected with lentiviruses expressing the CAR construct CD8SP2-CD19MM-(vL-vH)-Myc-BBz-T2A-PAC [SEQ ID NO: 82] targeting CD19 and selected with puromycin. CAR-T cells were pre-incubated with the indicated concentrations of Dasatinib and Imatinib for approximately 30 min at 37° C. The drug-treated and untreated T cells were plated in a white 384-well plate. […] Dasatinib (Das) and Imatinib (Imat) were added to the wells to maintain the final concentrations as indicated. […] Therefore, the assay can be used to screen for and identify candidate compounds that modulate the activity of cytotoxic cells, such as cytotoxic T cells, NK cells, CAR-T cells and T cells expressing engineered TCRs.

## Cc1nc(Nc2ncc(C(=O)Nc3c(C)cccc3Cl)s2)cc(N2CCN(CCO)CC2)n1 [Dasatinib]
  CAR-T cell induced cell death (GLuc activity): inhibition
